pIC50: −log10 of the molar value. Some of these results come from one statement about several compounds together.
Target: T1, NADH/NADPH oxidase
T1 construct: Bovine aortic membrane fraction was used as enzyme preparation
Assay: NADH/NADPH oxidase inhibition activity, lucigenin chemiluminescence, bovine aortic membrane fraction
Assay type: biochemical
Conditions: 5 μM lucigenin, 100 μM NADH, 37° C., pH 7.4

SMILES: O=C(Nc1cc(C(F)(F)F)ccc1N1CCNCC1)c1ccn2ncc(-c3ccc(OCc4ccccc4)cc3)c2n1 [Compound B131]
- pIC50: ≥ 6.00

SMILES: C=CCNC1CCN(c2ccccc2NC(=O)c2cnc3c(-c4ccc(Cl)cc4)cnn3c2)CC1 [Compound B20]
- pIC50: ≥ 6.00

SMILES: NNC(=O)COc1ccc(NC(=O)c2ccn3ncc(-c4cccc(Cl)c4)c3n2)c(N2CCNCC2)c1 [Compound B50]
- pIC50: ≥ 6.00

SMILES: O=C(c1ccn2ncc(-c3ccc(OCc4ccccc4)cc3)c2n1)N1CCCCCC1 [Compound A309]
- pIC50: ≥ 6.00

SMILES: Cc1cc(NC(=O)c2ccn3ncc(-c4cccc(Cl)c4)c3n2)ccc1OC1CCNCC1 [Compound B322]
- pIC50: ≥ 6.00

SMILES: O=C(Nc1cccc(-c2ccncc2)c1)c1ccn2ncc(-c3ccc(OCc4ccccc4)cc3)c2n1 [Compound B27]
- pIC50: ≥ 6.00

SMILES: COCCNC1CCN(c2ccccc2NC(=O)c2ccn3ncc(-c4cccc(Cl)c4)c3n2)CC1 [Compound B281]
- pIC50: ≥ 6.00

SMILES: O=C(Nc1ccc(N2CCNCC2)cc1)c1ccn2ncc(-c3ccc4ccccc4c3)c2n1 [Compound B35]
- pIC50: ≥ 6.00

SMILES: NCCN[C@@H]1CCN(c2ccccc2NC(=O)c2ccn3ncc(-c4cccc(Cl)c4)c3n2)C1.O=C(O)/C=C/C(=O)O [Compound B172]
- pIC50: ≥ 6.00

SMILES: CCNC1CCN(c2ccccc2NC(=O)Nc2cnc3c(-c4cccc(Cl)c4)cnn3c2)CC1 [Compound B58]
- pIC50: ≥ 6.00

SMILES: O=C(Nc1cc(-c2ccccc2)ccc1N1CCNCC1)c1ccn2nccc2n1 [Compound B269]
- pIC50: ≥ 6.00

SMILES: O=C(c1ccn2ncc(-c3cccc(Cl)c3)c2n1)N(CCCc1ccccc1)C1CCNCC1 [Compound B331]
- pIC50: ≥ 6.00

SMILES: COC(=O)[C@H](NC(=O)c1ccn2ncc(-c3ccc(OCc4ccccc4)cc3)c2n1)c1ccccc1 [Compound A316]
- pIC50: ≥ 6.00

SMILES: CCN(CC)c1cc(C(=O)Nc2ccccc2N2CCNCC2)nc2c(-c3cccc(Cl)c3)cnn12 [Compound B31]
- pIC50: ≥ 6.00

SMILES: O=C(Nc1cnc2c(-c3ccc(Cl)cc3)cnn2c1)Nc1ccccc1N1CCNCC1 [Compound B218]
- pIC50: ≥ 6.00

SMILES: CCCCNC1CCN(c2ccccc2NC(=O)Nc2cnc3c(-c4ccc(Cl)cc4)cnn3c2)CC1 [Compound B293]
- pIC50: ≥ 6.00

SMILES: O=C(Nc1ccccc1N1CCNCC1)c1ccn2ncc(-c3cccc(NCc4ccccc4)c3)c2n1 [Compound B242]
- pIC50: ≥ 6.00

SMILES: CNC1CCN(c2ccccc2NC(=O)Nc2cnc3c(-c4cccc(Cl)c4)cnn3c2)CC1 [Compound B55]
- pIC50: ≥ 6.00

SMILES: O=C(Nc1ccc(N2CCNCC2)cc1)c1ccn2ncc(C#CCCCc3ccccc3)c2n1 [Compound B61]
- pIC50: ≥ 6.00
